Library screen at single concentrations

From ChEMBL document CHEMBL3988442, “University of Dundee, Small-Polar-MMV Screening Library” (2021).

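Whole-parasite assay of Trypanosoma brucei over 72 hours; the read-out is not stated. Tested at 30 µM. Higher reads as stronger inhibition (inferred: compounds with an IC50 in retests scored well above the rest). Values scatter widely below zero; nearly all retest evidence comes from the higher of the two concentrations used. Of about 64,000 compounds tested this way, about 940 (1.5%) reached 50% or more in at least one test.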

Each number is a percent effect as filed. The controls that fix the scale are not given in the record; negative values are as filed. The compounds are a random part of those screened.

* O=C(NC1CCCCC1)C1CCCN(C(=O)Nc2ccccn2)C1 (stereo unspecified) : 6.507%
* Cc1noc(C)c1CN1CCn2c(CN3CCN(C)CC3)cnc2C1.O=C(O)C(F)(F)F.O=C(O)C(F)(F)F.O=C(O)C(F)(F)F : -47.8%
* O=C(NCC(O)c1cccs1)c1cccc(Cl)c1 (stereo unspecified) : -15.68%
* Cc1ccc(N2CCCC3(COCCN(c4nccs4)C3)C2)nn1.O=C(O)C(F)(F)F.O=C(O)C(F)(F)F (stereo unspecified) : 37.9%
* CN1CCC2(C=C(C(=O)N3CCCC3)c3ccccc32)CC1.O=C(O)C(F)(F)F : -34.69%
* Cc1nc(CN2CCN(C(=O)CCC(=O)c3ccccc3)CC2)no1 : -66.09%
* Cc1noc(C)c1CN(C)C(=O)Nc1cnn(CC2CCCO2)c1 (stereo unspecified) : 15.99%
* Cc1ccc(NC(C)C(=O)NCc2cccs2)cc1C (stereo unspecified) : -27.41%
* O=C(O)C(F)(F)F.O=C1CC(c2ccncc2)C2(CCN(C(=O)c3cccs3)CC2)N1 (stereo unspecified) : -12.85%
* O=C(O)C(F)(F)F.O=C(O)C(F)(F)F.c1cc(CN2CCCn3cnc(COCC4CC4)c3C2)ccn1 : -2.516%
* CNCC(=O)N1CCC(c2ccnc(Nc3ccc(C)cn3)n2)C1.Cl (stereo unspecified) : 3.546%
* COc1cccc(-c2noc(C3CCN(CC4CCCCC4)C3)n2)c1.Cl (stereo unspecified) : 12.85%
* NC(=O)c1ccc(N2CCN(Cc3c(Cl)cncc3Cl)CC2)nc1 : -7.216%
* [H][C@]12CCC[C@@]1(CO)CN(C(=O)c1cc(C)nc3ccc(CC)cc13)C2 : -42.48%
* COCCCNC(=O)NCc1cccn1Cc1ccccc1C : -24.61%
* COc1cc(C(=O)N2CCC3(CC2)Nc2ccccc2NC3=O)ccn1 : -28.93%
* CC(C)C1CN(S(=O)(=O)c2cccc(C#N)c2)CCS1 (stereo unspecified) : -30.22%
* Cc1nc(CSc2nc(=O)ccn2C(C)C)cs1 : -32.89%
* [H][C@@]12COC[C@]1(COc1nccc(C)n1)CN(C(=O)C1=CCCCC1)C2 : -32.98%
* c1cnc(-c2nc(CN3CCOC(Cn4cncn4)C3)cs2)nc1 (stereo unspecified) : -28.27%
* NC(=O)C1CCN(CCCc2ccc(C(F)(F)F)cc2)CC1 : -32.99%
* Cc1cnn(C2CN(CC(=O)NCCc3ccsc3)C2)c1 : 17.17%
* CC(=O)Nc1nc(C)c(S(=O)(=O)NCCc2cccnc2)s1 : -5.673%
* CN1CC(=O)N(c2cnn(C)c2)CC12CCN(CC1CC1)C2.O=C(O)C(F)(F)F.O=C(O)C(F)(F)F (stereo unspecified) : -3.835%
* [H][C@]12CC[C@]([H])(CN(Cc3cscn3)C1)N(C(=O)C1(C#N)CCOCC1)C2 : -52.3%
* CCOC(=O)NC(CNC(=O)c1ncccn1)CC(C)C (stereo unspecified) : 0.1172%
* Cc1cnc(N)c(C(=O)C2CCN(C(=O)c3ccccc3F)CC2)c1 : 31.22%
* CC(C)N(C(=O)CN(C)C1CCc2ccccc21)C(C)C (stereo unspecified) : 9.485%
* Cc1nc2c(c(C)c1CC(=O)Nc1ccc(Cl)cc1)c(=O)[nH]n2C : 23.73%
* Cc1nc(C(=O)N2CCCCC2c2ccc(CN(C)C)cc2)c(C)o1 (stereo unspecified) : -51%
* CCOc1ccc(CC(=O)N2CCN(c3nccn3CC)CC2)cc1.Cl : 9.034%
* Cc1nn(CCC#N)c(C)c1[C@@H]1C=C[C@@H](NCc2ccc(F)cc2)C1 : -3.581%
* Cn1cccc1C(=O)N1CCCC2(CCCN2S(C)(=O)=O)C1 (stereo unspecified) : -11.67%
* Cn1c(C(=O)N(CC(N)=O)C2CCCC2)cc(Cl)c1Cl : 8.952%
* COc1ccc(C2OC(COc3ccccc3Br)=NN2C(C)=O)cc1 (stereo unspecified) : -30.82%
* CN(C)c1nccc(C2CN(S(C)(=O)=O)C2)n1 : 5.641%
* c1cc(CCNc2ncnc3c2CCN(Cc2ccoc2)CC3)ccn1 : -20.16%

Some entries from above, unchanged:

structure	effect
c1cnc(-c2nc(CN3CCOC(Cn4cncn4)C3)cs2)nc1 (stereo unspecified)	-28.27
COc1ccc(C2OC(COc3ccccc3Br)=NN2C(C)=O)cc1 (stereo unspecified)	-30.82
NC(=O)c1ccc(N2CCN(Cc3c(Cl)cncc3Cl)CC2)nc1	-7.216